# In PubChem BioAssay AID230 (DTP/NCI, 2004):
# The list shows only some results of the screen, not a fair sample: it covers a few groups of compounds. Other doses and runs of a compound may be missing. T/C: endpoint of the treated group in % of that of the vehicle group. For survival time, this PubChem deposit counts one and a half times the control or more as active, and values a quarter to a half above the control carry no call in these data; other NCI protocols may use other cut-offs. Some T/C values are marked as having no survivor count here; that says nothing about deaths at the dose. Schedule codes are those of the source, taken here to give the interval after Q, in days (D) or hours (H), and the number of doses after X.
# System: C3H/He mice, Gardner lymphosarcoma 6C3HED ip, survival T/C
# Assay: NCI In Vivo Anticancer Drug Screen. Data for tumor model Lymphosarcoma Gardner 6C3HED (intraperitoneal) in C3H/He mice
# Details: T/C endpoint: survival time, mean or median, schedule: Q01DX010 (ip), vehicle: saline, higher T/C = longer survival
# Protocol: The antitumor activity of compounds was measured in mice bearing transplantable tumors. Survival or tumor size were measured and the results are expressed as the measurement made in the treated group (T) divided by the measurement made in the vehicle treated control group (C). The tumor model used in this assay is Lymphosarcoma Gardner 6C3HED (intraperitoneal) in C3H/He mice
compound,measurement,setting,value
CN(CCCl)CCCl,T/C,dose: 0.06 mg/kg/injection,133 % of control [survivor count not shown]
same,T/C,dose: 0.13 mg/kg/injection,166 % of control [survivor count not shown]
same,T/C,dose: 0.25 mg/kg/injection,223 % of control [survivor count not shown]
same,T/C,dose: 0.5 mg/kg/injection,180 % of control [survivor count not shown]
